Reference: paper PMC10163288
Some of the results follow.

B1: il10ra_site1_normal_mot_HHH_b2_06199_000000213_0001_1_17_H_._HHH_b1_04793_0001_0000300022_0000001_0_af2pred_0001 (protein)
chain: SSSSDKLVELTLKFVELLEREGDPEARRAAELLLRAAADIAKRLNDEELLEKIEQLLEELSSSSS
B2: il10ra_site1_sap_18_mot_HHH_b1_08616_000000009_0001_1_19_H_._HHH_b1_01800_0001_0000100007_0000001_0_0001 (protein)
chain: SSSSSEEDREVYELSREAVELDSDGNPEEARKVLEEAEELAREANNVLFLWIIEWLLRMLDSSSS
B3: il10ra_site1_normal_mot_HHH_b1_02997_000000220_0001_39_52_H_._HHH_b1_03750_0001_0000400038_0000001_0_1_af2pred_0001 (protein)
chain: SSSSSSDRLKRILELLRRALRIDDEEEAREIVEEAIELAQEAGNKQLLRLAEFILRNLSSSSSSS
B4: il10ra_site1_normal_mot_HHH_b1_04065_000000255_0001_41_56_H_._HHH_b2_01051_0001_0000500037_0000001_0 (protein)
chain: SSSSSDEHEEEVKELLEEAEKIDDDHERSQVLFRALRRAWEARDKELLREVDEVAIRLYHSSSSS
B5: il10ra_site1_sap_23_mot_HHH_b2_07521_000000141_0001_20_37_H_._HHH_b2_00924_0001_0000400022_0000001_0_0001_af2pred_dldesign_0_af2pred (protein)
chain: SSSSSKYEARQKTIELIKEASELEDKAEATKKVEEAVKLAKEANDKILEYTATYLLSKLKSSSSS
B6: il10ra_site1_sap_18_mot_HHH_b1_02062_000000185_0001_1_20_H_._HHH_b1_07805_0001_0000400025_0000001_0_0001_af2pred_dldesign_0_af2pred (protein)
chain: SSSSSEHEELVELIRKAAELYSEGKLEEAKETAEKAIELAKKLGDEVALYNAEYLLSKIESSSSS
B7: il10ra_site1_sap_24_mot_HHH_b2_01310_000000089_0001_41_55_H_._HHH_b2_00454_af2_0001_0000300016_0000001_0_0001 (protein)
chain: SSSSDAAQRVYELLREAVEALHEGDKEEAEEILREARELAEEANDMVMLMVIEMLERLIEDSSSS
B8: il10ra_site1_normal_mot_HHH_b2_07579_000000275_0001_1_19_H_._HHH_b1_00336_af2_0001_0000100014_0000001_0 (protein)
chain: SSSSDTQEVIELIREAAELLQNGNPEEAKKVLEEAKEIAEELNNFVARFAVEHLLRDIERLSSSS
B9: il10ra_site1_sap_17_mot_HHH_b2_01656_000000035_0001_1_20_H_._HHH_b1_08629_af2_0001_0000400021_0000001_0_0001_af2pred_0001 (protein)
chain: SSSSSAEEIVEEAKEEAEEARRQGNPEEAFEILLRALLLVAKLNNPEEARKLSQLLWELSRSSSS
B10: il10ra_site1_sap_26_mot_HHH_b1_01513_af2_000000021_0001_1_16_H_._HHH_b2_03098_af2_0002_0000600008_0000001_0_0001_af2pred_0001 (protein)
chain: SSSSSKSREVVELLRRALELAQQGNPEEAEELLEEARKLAEELNSPLLKHAVKAAERVVKGSSSS
B11: il10ra_site1_sap_20_mot_HHH_b2_03425_000000200_0001_22_39_H_._HHH_b1_07284_af2_0001_0000400022_0000001_0_0001_af2pred_0001 (protein)
chain: SSSSTEAERVRELLRRVAELLRKGNPEEAREVLREALELAEELGNLALEIAARFLEEIINSSSSS
B12: il10ra_site1_normal_mot_HHH_b2_01447_af2_000000258_0001_1_20_H_._HHH_b2_03594_0001_0000500068_0000001_0_af2pred_0001 (protein)
chain: SSSSSQEVIELLREAVELLNKGDPEEAERIAEEALELAEEAGNPVLEVIARFLLEHIRRLGSSSS
B13: il10ra_site1_sap_24_mot_0eddeacbb14b769e73e254714f31e2f9_0001_af2_000000127_0001_37_51_H_._HHH_b2_04293_0001_0000300035_0000001_0_0001 (protein)
chain: SSSSDASREVYELMRRAVEADLDGNPEEAEELAEEALELAERANNPFLRFLAESLLRMIRGSSSS
B14: il10ra_site1_sap_21_mot_HHH_b2_02694_000000228_0001_1_18_H_._HHH_b1_05849_0001_0000500014_0000001_0_0001 (protein)
chain: SSSSDDEKEVRELLEEAEEAEEEGDHDLVYELLKRAIEVATKSNDPELARLVMEFLHEWISSSSS
B15: il10ra_site1_normal_mot_HHH_b1_05056_000000217_0001_1_20_H_._HHH_b2_00620_0001_0000100002_0000003_0 (protein)
chain: SSSSDEEEVEEIEEKIERAIEEGNEEEALELLLRALRLAYELRDEELLRRLWELVRLVADSSSSS
B16: il10ra_site1_normal_mot_HHH_b2_07145_000000158_0001_24_40_H_._HHH_b1_07887_0001_0000100009_0000001_0 (protein)
chain: SSSSTEELFEKVRRLIKEAVELYRNGNPEEARRLLEELREELEELGNQALLWSVEHLLRLLSSSS
B17: il10ra_site1_normal_mot_HHH_b1_00566_000000151_0001_22_39_H_._HHH_b1_00313_af2_0001_0000100003_0000002_0_af2pred_0001 (protein)
chain: SSSSSEEEEIAKKVAEASRLAKERGDEEVVEELFQLLAEAFAKGDPELFEEVARLAEEFLSSSSS
B18: il10ra_site1_normal_mot_HHH_b2_08265_af2_000000206_0001_22_38_H_._HHH_b1_07741_af2_0001_0000100003_0000002_0 (protein)
chain: SSSSDEEQERLEELIEELEKLLEEGDQQKVIHILWELARLAAELNDEEALQIAQRVSRHLSSSSS
B19: il10ra_site1_sap_21_mot_HHH_b2_08186_000000021_0001_43_56_H_._HHH_b1_00499_af2_0001_0000400004_0000001_0_0001 (protein)
chain: SSSSDLKEYVEIARHFAEAALKNGTPEMAERIMELLLEALRHAGNPELVEEAEELLEEIQNSSSS
B20: il10ra_site1_normal_mot_HHH_b2_07440_af2_000000021_0001_1_18_H_._HHH_b2_06670_0001_0000100006_0000001_1 (protein)
chain: SSSSDLLEEVLELSREAFRLALRGNPEEAKRVLEEASELAEEGNNPRLLRVIEDLLQVIDSSSSS
B21: il10ra_site1_sap_21_mot_ems_3hM_3349_000000296_0001_25_42_H_._ced5346996f09c56612ad601d3ba6007_0001_1_0001_0000600011_0000002_0_0001_af2pred_0001 (protein)
chain: SSSSTEEDNKRAVEILLEAAEQIEDPERRKRALRFAKFAAEEMGDEELEELVEEVEERLRSSSSS
B22: il10ra_site1_sap_9_mot_HHH_b2_04251_af2_000000037_0001_42_56_H_._HHH_b1_02006_0001_0000800040_0000001_0_0001 (protein)
chain: SSSSDELEEYAEIAKHFIEAAVESGNPKLAERIARRAAEALENAGNPELAEEVRELIEELLSSSS
B23: il10ra_site1_sap_19_mot_HHH_b1_06789_af2_000000041_0001_1_20_H_._HHH_b1_06129_0001_0000400024_0000001_0_0001_af2pred_0001 (protein)
chain: SSSSDSQEVIKLIREAIELLRNGNPEEAQEVLERAREIAEEANNLALRFIVEALLRRIEEQSSSS
B24: il10ra_site1_sap_32_mot_HHH_b2_05766_000000267_0001_1_20_H_._HHH_b1_08312_af2_0001_0000100006_0000002_0_0001 (protein)
chain: SSSSTEEEIEKLLEELERAIEEGDKELFSELALRILRLIYHAGDAELLRELWRLLKEAVESSSSS
B25: il10ra_site1_normal_mot_HHH_b1_00999_000000080_0001_41_55_H_._HHH_b1_02031_af2_0001_0000900032_0000002_0 (protein)
chain: SSSSSDEEEEEVRELLEEAKRIPDPRERIEILLEALRIALHLGNEELLQLVWRVIKELGSSSSSS
B26: il10ra_site1_normal_mot_HHH_b2_00943_af2_000000149_0001_1_17_H_._HHH_b2_02724_af2_0001_0000100001_0000001_1 (protein)
chain: SSSSSEEFEELVEEAERLAKELGDENVRFLIRQLEKAYKLAGDSWAKEILENLLKELEELGSSSS
B27: il10ra_site1_normal_mot_8756ee2cf497b5429c717dfc0c0bcfd6_0001_000000186_0001_1_13_H_._HHH_b1_01406_af2_0001_0000300010_0000002_0 (protein)
chain: SSSSSTEAVELLREVVELIAEGNPEEAEKLIEEAEKVAEEEGNDVILWQLEYLKRHIEDSSSSSS
B28: il10ra_site1_normal_mot_HHH_b2_00345_af2_000000013_0001_42_56_H_._HHH_b1_02819_0001_0000300036_0000001_0 (protein)
chain: SSSSSDEEERIEELLEEAEQIDDREERVEVLLEALRLAIELGDAELLQEIWEVFKKLIHSSSSSS
B29: il10ra_site1_normal_mot_HHH_b2_06857_af2_000000179_0001_42_54_H_._HHH_b2_03020_af2_0001_0000800034_0000001_0 (protein)
chain: SSSSSSSETQKVFELLRRAAQIEDKEEAREIVEEAEELAEELGNELLEWQARFLLRALSSSSSSS
B30: il10ra_site1_normal_mot_HHH_b2_00262_000000269_0001_18_35_H_._HHH_b1_07801_0001_0000100014_0000001_0_af2pred_0001 (protein)
chain: SSSSNLEERALHLLVRAFRLAENGNPEEAERVLEELKELVEENNDEELRRAVLSLERFLGSSSSS
B31: il10ra_site1_normal_mot_HHH_b2_08186_000000021_0001_43_56_H_._HHH_b2_07301_af2_0001_0000300015_0000001_0 (protein)
chain: SSSSDELEELERELKEALERGDREEFLRLVQEVLRLAIRLGDQEALQEVWRLLEEFRKRISSSSS
B32: il10ra_site1_normal_mot_HHH_b1_08411_af2_000000053_0001_1_20_H_._HHH_b2_00099_0001_0000200020_0000001_0 (protein)
chain: SSSSQEEFEIARKVIEQVIRLQREGNPEEARRLIEELEELAEELDNVALKAAVEALKRSVNSSSS
B33: il10ra_site1_normal_mot_HHH_b2_05813_000000266_0001_1_19_H_._6fc214f1d55fddbe6d2ca43977f8e0e4_0001_0001_0000400012_0000001_0_af2pred_0001 (protein)
chain: SSVRLLLILLARLSSPAALRIRVAIKRLLDKGVPPEEIIEIVKELAEELGDPEVLRLIEEAERNG
B34: il10ra_site1_sap_15_mot_HHH_b1_02997_000000220_0001_39_52_H_._HHH_b1_02583_af2_0001_0000300016_0000001_0_0001 (protein)
chain: SSSSDEAFELAEEAIKRAKELFENGNPEEAERLLEEVIEELEERGNFAVVFSLRHLLRVLRSSSS
B35: il10ra_site1_sap_25_mot_aff62e40800cfbf30c5099bd910ef069_0001_af2_000000256_0001_1_14_H_._HHH_b2_02556_0001_0000400023_0000002_0_0001_af2pred_0001 (protein)
chain: SSSSSRAEIAARFHEHILRAALELGDPEDAERTVRIASDALKRAGNPELAEELEEVYRELTSSSS
B36: il10ra_site1_sap_34_mot_HHH_b1_03763_000000209_0001_22_38_H_._HHH_b1_03453_0001_0000300018_0000001_0_0001_af2pred_0001 (protein)
chain: SSSSSNLEEHVRRAIRAARIAAERGNPRIARLILELIAIFVREAGDEELLKLLEEVLEELSSSSS
B37: il10ra_site1_sap_19_mot_HHH_b2_02736_000000092_0001_22_38_H_._HHH_b1_05369_0001_0000200024_0000002_0_0001 (protein)
chain: SSSSDEERQEAAQAALEAFRLAIRGNPEEAREVLEEALKLAEELNDERAAKMLRDLLKALTSSSS

These binders were tested against il10ra, Q13651 (assay: yeast display titration).

Apparent Kd, inactive:
B1 no binding seen
B2 no binding seen
B3 no binding seen
B4 > 719 nM
B5 no binding seen
B6 no binding seen
B7 no binding seen
B8 no binding seen
B9 no binding seen
B10 no binding seen
B11 no binding seen
B12 no binding seen
B13 no binding seen
B14 > 464 nM
B15 no binding seen
B16 no binding seen
B17 no binding seen
B18 no binding seen
B19 no binding seen
B20 no binding seen
B21 no binding seen
B22 no binding seen
B23 no binding seen
B24 no binding seen
B25 no binding seen
B26 no binding seen
B27 no binding seen
B28 no binding seen
B29 no binding seen
B30 no binding seen
B31 no binding seen
B32 no binding seen
B33 no binding seen
B34 no binding seen
B35 no binding seen
B36 no binding seen
B37 > 373 nM

A run of entries from further up, as a working copy:
Apparent Kd, inactive:
B21 no binding seen
B22 no binding seen
